In PMC7147001:
No constants are given. Whether binding was seen depends on the method and setting. In cells and extracts the contact can be indirect. Some entries that bind do so weakly or less than the wild type.

Amino acid sequences for entries named in this document (tags omitted). Residues count along the entry.
UniProt P63038, residues 27-573: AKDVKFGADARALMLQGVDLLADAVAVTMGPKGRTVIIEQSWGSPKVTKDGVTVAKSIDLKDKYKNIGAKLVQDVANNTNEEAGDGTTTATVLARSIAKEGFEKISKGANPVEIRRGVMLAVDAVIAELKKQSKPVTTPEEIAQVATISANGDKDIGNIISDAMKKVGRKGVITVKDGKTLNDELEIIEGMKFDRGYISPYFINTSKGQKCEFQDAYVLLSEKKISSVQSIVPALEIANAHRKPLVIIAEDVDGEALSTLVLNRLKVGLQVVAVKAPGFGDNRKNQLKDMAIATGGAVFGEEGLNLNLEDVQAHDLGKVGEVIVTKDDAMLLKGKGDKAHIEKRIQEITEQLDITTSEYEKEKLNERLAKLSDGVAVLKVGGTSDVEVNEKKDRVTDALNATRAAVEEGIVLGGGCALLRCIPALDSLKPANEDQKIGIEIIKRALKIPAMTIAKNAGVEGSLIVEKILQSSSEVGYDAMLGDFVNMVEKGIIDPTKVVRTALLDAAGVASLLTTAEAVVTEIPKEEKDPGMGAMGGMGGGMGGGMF

How the values were obtained:
[1] = target: Myc-tagged HSP60 (mouse, full length), overexpressed (mouse) (UniProt P63038); test: co-IP; overexpressed HSP60 with endogenous AdipoR1 in H9c2 cells or endogenous AdipoR2 in HepIR cells; western blot; done as in ref. 6
[2] = target: GST-HSP60 (heat shock protein 60, mouse, full length, GST fusion) (mouse) (UniProt P63038); test: pull-down; GST-HSP60 or GST control as bait; endogenous AdipoR1 from H9c2 cells or AdipoR2 from HepIR cells, detected by western blot; done as in ref. 6; only the target purified

binding [1]: binds
binding [2]: binds
B1: Adiponectin receptor 2 (AdipoR2), endogenous in HepIR cells (receptor, UniProt Q8BQS5 1-386)
chain: MNEPAKHRLGCTRTPEPDIRLRKGHQLDDTRGSNNDNYQGDLEPSLETPVCSSYYENSPEEPECHDDNSQEDEGFMGMSPLLQAHHAMERMEEFVCKVWEGRWRVIPHDVLPDWLKDNDFLLHGHRPPMPSFRACFKSIFRIHTETGNIWTHLLGCVFFLCLGIFYMFRPNISFVAPLQEKVVFGLFFLGAILCLSFSWLFHTVYCHSEGVSRLFSKLDYSGIALLIMGSFVPWLYYSFYCNPQPCFIYLIVICVLGIAAIIVSQWDMFATPQYRGVRAGVFVGLGLSGIIPTLHYVISEGFLKAATIGQIGWLMLMASLYITGAALYAARIPERFFPGKCDIWFHSHQLFHIFVVAGAFVHFHGVSNLQEFRFMIGGGCTEEDAL
